PMC7981807
These are yes or no findings as the source states them, for the method shown. In cells and extracts the contact can be indirect. Some binding calls cover weakened binding; strength is not graded here.

The chains behind the UniProt entries cited, without tags or fusion partners.
UniProt Q01196: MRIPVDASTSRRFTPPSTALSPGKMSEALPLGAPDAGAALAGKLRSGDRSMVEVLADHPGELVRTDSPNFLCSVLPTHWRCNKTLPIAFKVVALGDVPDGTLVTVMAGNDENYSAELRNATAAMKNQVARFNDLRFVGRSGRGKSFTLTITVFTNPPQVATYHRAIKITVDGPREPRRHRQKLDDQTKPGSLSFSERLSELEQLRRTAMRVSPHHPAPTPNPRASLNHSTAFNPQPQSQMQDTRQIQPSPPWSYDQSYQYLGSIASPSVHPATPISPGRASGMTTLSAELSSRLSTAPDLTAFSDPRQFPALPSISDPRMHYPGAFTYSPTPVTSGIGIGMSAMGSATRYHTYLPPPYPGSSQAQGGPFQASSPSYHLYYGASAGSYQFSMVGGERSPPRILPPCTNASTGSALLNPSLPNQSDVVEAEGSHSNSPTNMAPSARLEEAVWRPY
UniProt Q09472: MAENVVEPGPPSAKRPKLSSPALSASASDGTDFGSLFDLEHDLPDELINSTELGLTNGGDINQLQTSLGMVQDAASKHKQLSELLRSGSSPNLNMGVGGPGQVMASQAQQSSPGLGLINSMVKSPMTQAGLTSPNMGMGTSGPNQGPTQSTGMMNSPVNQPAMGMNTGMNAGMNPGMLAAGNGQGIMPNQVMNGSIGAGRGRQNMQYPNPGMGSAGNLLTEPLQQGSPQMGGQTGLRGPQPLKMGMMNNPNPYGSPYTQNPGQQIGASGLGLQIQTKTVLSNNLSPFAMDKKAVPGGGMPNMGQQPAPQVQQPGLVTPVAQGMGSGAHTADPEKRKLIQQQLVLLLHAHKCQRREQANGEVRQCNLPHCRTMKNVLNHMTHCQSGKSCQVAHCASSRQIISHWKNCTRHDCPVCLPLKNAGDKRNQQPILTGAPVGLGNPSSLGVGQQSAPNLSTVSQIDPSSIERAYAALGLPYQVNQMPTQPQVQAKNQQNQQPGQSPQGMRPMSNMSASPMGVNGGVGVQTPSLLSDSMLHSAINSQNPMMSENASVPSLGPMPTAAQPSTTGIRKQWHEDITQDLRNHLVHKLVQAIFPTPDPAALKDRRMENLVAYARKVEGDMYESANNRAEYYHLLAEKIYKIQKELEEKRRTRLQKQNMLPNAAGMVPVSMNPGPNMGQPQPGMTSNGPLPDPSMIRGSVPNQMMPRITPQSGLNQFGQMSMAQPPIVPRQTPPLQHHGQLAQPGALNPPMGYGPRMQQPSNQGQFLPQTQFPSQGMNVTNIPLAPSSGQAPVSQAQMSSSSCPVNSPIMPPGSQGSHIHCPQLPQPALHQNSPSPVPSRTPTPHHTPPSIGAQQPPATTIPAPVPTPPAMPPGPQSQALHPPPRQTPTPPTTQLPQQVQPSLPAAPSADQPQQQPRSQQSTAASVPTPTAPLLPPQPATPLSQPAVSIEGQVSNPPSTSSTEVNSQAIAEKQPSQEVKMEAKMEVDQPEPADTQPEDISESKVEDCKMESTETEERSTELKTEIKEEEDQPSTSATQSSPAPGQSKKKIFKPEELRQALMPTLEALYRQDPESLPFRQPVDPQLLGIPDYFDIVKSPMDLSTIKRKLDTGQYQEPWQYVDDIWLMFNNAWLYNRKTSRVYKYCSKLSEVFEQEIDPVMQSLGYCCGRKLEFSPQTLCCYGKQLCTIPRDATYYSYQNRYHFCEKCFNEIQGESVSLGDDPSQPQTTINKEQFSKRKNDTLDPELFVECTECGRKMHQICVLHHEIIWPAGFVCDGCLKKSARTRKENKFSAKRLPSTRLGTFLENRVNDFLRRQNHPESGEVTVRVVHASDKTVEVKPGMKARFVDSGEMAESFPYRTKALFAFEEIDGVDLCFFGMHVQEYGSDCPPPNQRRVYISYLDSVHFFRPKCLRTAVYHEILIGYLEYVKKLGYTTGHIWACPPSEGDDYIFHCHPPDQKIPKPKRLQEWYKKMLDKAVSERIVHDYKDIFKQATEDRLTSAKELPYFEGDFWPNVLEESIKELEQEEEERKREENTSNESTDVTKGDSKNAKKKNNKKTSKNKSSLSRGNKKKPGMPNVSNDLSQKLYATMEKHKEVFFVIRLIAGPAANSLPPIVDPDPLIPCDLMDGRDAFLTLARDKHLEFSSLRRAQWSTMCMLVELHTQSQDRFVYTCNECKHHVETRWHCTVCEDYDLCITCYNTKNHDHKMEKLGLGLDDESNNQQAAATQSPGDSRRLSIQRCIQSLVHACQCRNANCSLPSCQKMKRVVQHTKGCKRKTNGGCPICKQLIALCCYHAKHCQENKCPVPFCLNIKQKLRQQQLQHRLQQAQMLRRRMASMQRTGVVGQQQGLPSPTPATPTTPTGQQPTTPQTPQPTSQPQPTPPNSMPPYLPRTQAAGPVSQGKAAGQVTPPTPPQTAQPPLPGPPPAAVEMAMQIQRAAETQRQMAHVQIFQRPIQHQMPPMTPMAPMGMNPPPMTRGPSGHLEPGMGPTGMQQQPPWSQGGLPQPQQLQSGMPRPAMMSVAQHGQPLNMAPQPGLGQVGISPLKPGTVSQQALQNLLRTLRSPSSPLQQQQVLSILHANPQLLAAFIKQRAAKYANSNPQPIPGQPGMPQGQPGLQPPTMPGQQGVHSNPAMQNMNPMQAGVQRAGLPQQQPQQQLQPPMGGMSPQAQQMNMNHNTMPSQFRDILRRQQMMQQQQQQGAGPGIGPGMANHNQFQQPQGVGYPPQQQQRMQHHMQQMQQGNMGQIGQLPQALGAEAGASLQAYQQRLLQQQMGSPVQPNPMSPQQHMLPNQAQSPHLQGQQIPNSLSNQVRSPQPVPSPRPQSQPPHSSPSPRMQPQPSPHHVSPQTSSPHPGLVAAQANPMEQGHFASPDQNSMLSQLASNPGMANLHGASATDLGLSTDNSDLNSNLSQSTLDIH
UniProt Q13547: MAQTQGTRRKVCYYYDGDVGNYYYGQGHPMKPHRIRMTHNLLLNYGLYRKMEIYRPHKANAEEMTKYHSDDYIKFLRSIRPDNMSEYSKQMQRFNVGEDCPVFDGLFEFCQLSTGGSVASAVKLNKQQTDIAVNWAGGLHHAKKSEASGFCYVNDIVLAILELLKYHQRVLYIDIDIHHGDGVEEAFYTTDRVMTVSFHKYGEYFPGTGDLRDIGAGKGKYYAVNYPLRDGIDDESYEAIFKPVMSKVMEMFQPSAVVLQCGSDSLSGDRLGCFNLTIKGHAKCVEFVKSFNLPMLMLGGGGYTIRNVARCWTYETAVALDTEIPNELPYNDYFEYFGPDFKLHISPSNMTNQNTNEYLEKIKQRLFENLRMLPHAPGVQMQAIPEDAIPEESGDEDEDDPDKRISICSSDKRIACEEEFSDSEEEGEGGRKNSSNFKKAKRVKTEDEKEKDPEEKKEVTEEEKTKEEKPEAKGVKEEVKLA
UniProt Q92793: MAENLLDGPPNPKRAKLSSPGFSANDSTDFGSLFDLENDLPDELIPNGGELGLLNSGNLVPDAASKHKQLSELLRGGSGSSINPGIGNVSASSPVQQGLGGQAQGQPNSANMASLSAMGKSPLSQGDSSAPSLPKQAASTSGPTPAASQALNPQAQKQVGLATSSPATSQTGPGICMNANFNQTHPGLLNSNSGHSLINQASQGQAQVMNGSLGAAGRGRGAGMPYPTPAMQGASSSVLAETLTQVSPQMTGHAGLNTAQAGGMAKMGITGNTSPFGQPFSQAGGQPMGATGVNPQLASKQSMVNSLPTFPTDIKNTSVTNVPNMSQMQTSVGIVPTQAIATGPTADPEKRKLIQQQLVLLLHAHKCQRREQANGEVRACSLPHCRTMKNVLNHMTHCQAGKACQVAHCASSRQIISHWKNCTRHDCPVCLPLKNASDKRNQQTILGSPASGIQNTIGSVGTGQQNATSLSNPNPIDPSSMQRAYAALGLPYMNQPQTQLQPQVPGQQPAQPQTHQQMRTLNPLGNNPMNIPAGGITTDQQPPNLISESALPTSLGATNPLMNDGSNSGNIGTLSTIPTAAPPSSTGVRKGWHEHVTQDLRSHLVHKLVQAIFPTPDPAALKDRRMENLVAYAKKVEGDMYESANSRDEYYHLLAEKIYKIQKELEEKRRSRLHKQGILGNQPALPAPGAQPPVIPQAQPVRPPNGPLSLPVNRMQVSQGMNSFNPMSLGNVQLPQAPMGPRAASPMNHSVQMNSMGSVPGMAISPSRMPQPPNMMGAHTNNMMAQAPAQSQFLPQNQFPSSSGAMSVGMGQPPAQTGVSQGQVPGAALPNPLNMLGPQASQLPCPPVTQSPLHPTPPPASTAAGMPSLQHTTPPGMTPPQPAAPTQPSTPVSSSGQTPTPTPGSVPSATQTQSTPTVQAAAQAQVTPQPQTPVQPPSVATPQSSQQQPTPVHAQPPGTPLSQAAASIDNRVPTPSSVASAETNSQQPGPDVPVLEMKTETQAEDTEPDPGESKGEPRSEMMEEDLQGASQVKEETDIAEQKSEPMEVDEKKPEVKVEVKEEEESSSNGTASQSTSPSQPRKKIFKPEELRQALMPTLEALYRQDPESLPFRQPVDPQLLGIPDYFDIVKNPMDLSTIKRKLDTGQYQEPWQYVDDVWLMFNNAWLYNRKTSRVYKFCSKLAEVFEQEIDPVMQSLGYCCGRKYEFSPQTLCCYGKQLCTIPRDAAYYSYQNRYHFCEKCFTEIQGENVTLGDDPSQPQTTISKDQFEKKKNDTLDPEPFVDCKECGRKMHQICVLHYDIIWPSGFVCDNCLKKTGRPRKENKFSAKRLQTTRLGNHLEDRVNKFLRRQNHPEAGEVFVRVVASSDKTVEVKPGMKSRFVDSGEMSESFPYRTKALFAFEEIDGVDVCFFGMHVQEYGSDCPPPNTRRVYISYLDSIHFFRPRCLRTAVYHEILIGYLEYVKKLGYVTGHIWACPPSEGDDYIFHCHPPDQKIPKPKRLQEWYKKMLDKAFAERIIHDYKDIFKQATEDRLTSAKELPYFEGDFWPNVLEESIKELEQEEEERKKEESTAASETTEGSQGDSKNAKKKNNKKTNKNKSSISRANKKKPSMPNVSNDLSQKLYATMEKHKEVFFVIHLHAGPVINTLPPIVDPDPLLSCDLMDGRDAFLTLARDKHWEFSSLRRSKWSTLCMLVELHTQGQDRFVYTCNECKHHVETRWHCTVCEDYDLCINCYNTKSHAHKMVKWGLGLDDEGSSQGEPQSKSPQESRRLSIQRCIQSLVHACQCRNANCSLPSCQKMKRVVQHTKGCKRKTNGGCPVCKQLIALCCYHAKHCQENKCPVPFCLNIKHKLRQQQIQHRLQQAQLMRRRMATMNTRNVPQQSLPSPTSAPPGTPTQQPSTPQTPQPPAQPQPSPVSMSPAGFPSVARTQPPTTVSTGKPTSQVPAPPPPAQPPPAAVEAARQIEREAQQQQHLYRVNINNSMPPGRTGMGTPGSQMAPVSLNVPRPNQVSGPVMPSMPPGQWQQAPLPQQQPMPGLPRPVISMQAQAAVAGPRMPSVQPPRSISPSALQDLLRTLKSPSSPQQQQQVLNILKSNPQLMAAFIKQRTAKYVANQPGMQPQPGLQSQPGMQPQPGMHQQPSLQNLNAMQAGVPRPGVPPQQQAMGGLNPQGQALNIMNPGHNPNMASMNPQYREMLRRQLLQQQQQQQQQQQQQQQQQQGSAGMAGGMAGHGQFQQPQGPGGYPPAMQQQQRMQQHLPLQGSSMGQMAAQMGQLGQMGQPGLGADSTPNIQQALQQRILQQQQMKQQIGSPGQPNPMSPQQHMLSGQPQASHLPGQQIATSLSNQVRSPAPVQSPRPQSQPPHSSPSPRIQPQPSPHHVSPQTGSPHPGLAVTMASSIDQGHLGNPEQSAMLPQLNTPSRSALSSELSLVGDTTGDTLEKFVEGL

Experiments:
[1] = biological target: RUNX1 (Runt Related Transcription Factor 1), endogenous (human (endogenous in REH, Nalm6 and BCP-ALL patients' cells)) (UniProt Q01196); assay: co-IP; RUNX1 antibody (IgG as control) in REH cells, endogenous proteins; blots with RUNX1 and CBFA2T3 antibodies
[2] = biological target: EP300 (P300), endogenous (human (endogenous in REH and Nalm6)) (UniProt Q09472); assay: proximity ligation; Duolink PLA on endogenous proteins, dots per nucleus, in REH cells, Nalm6 cells and BCP-ALL patients' cells; cut-off two S.D. over the negative control, Fisher's exact test
[3] = biological target: HDAC1, endogenous (human (endogenous in REH and Nalm6)) (UniProt Q13547); assay: as above
[4] = biological target: CREBPP (CBP), endogenous (human (endogenous in REH and Nalm6)) (UniProt Q92793); assay: as above
[5] = biological target: T1, SIN3A, endogenous (human (endogenous in REH and Nalm6)) (UniProt Q96ST3); assay: as above
T1 sequence: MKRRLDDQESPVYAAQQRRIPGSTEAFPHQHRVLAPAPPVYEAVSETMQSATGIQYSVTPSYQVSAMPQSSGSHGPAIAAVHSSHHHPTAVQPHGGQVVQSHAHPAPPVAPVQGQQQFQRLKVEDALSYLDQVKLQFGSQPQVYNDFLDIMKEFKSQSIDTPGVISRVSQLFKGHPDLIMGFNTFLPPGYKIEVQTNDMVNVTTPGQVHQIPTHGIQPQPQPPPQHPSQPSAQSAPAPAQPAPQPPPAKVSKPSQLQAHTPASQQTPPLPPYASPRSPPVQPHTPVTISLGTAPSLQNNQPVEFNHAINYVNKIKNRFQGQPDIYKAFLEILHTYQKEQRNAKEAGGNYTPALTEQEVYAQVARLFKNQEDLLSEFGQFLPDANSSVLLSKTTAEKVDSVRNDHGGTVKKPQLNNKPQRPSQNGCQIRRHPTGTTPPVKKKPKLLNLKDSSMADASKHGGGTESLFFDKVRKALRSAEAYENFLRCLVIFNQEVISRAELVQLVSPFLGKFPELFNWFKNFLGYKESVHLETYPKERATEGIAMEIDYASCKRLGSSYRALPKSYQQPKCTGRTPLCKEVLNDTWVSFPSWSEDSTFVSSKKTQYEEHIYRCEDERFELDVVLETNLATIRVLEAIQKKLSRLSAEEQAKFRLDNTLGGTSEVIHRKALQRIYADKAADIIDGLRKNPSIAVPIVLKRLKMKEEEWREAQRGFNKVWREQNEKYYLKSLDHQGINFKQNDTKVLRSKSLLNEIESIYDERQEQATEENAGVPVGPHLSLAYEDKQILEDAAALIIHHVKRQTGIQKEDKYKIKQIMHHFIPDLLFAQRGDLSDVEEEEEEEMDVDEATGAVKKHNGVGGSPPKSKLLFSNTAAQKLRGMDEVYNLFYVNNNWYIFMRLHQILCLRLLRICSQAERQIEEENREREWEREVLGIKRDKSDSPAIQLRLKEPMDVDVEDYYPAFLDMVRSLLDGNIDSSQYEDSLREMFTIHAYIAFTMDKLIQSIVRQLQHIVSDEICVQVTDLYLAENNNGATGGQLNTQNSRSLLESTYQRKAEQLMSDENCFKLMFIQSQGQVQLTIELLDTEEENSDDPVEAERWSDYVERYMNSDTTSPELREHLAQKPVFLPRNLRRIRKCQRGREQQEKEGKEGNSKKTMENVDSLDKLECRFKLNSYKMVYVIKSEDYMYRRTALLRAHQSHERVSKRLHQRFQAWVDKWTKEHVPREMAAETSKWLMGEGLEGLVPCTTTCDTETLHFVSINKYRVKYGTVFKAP

Measured: binding

B1: CBFA2T3 (Core-Binding Factor Runt Domain Alpha Subunit 2 Translocated To 3), endogenous (protein, UniProt O75081 1-653)
chain: MPASRLRDRAASSASGSTCGSMSQTHPVLESGLLASAGCSAPRGPRKGGPAPVDRKAKASAMPDSPAEVKTQPRSTPPSMPPPPPAASQGATRPPSFTPHTHREDGPATLPHGRFHGCLKWSMVCLLMNGSSHSPTAINGAPCTPNGFSNGPATSSTASLSTQHLPPACGARQLSKLKRFLTTLQQFGSDISPEIGERVRTLVLGLVNSTLTIEEFHSKLQEATNFPLRPFVIPFLKANLPLLQRELLHCARLAKQTPAQYLAQHEQLLLDASASSPIDSSELLLEVNENGKRRTPDRTKENGSDRDPLHPEHLSKRPCTLNPAQRYSPSNGPPQPTPPPHYRLEDIAMAHHFRDAYRHPDPRELRERHRPLVVPGSRQEEVIDHKLTEREWAEEWKHLNNLLNCIMDMVEKTRRSLTVLRRCQEADREELNHWARRYSDAEDTKKGPAPAAARPRSSSAGPEGPQLDVPREFLPRTLTGYVPEDIWRKAEEAVNEVKRQAMSELQKAVSDAERKAHELITTERAKMERALAEAKRQASEDALTVINQQEDSSESCWNCGRKASETCSGCNAARYCGSFCQHRDWEKHHHVCGQSLQGPTAVVADPVPGPPEAAHSLGPSLPVGAASPSEAGSAGPSRPGSPSPPGPLDTVPR
binds: all assays above
